Experimental data: PubChem BioAssay AID652243 (Drosophila RNAi Screening Center, 2013)
The deposit covers about 24,000 reagents; this is an unselected part of those with a known target gene and a result. In the full data, 246 (1%) are marked active. 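Plates not normalised; calls are printed but the firefly/Renilla ratio behind them is not deposited; fold cut for lowering reported inconsistently.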 Raw values vary from plate to plate and are shown uncorrected. Names joined by + are all predicted targets of the reagent. The record does not give: the amount of reagent.

- Purpose: 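Fly regulators of androgen-dependent reporter output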 (primary screen)
- Cell system: Drosophila S2R+ cells
- Reagents: long dsRNA against Drosophila genes
- Time to read-out: 72 h (48 h, then 24 h hormone)
- Treatment: synthetic androgen R1881 at 10 nM for 24 h
- Measurement: 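Firefly light from an androgen-responsive reporter and Renilla control light per well, raw and unnormalised, for each of two replicates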
- Direction: firefly reporter light: higher = more light from androgen-responsive reporter; Renilla control light: higher = more constitutive control signal (cell number, transfection)
- Active means: 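Across duplicate plates, a knock-down whose log firefly/Renilla ratio shifted a set fold down or up from the GFP/LacZ control mean was a hit; the downward cut appears as both 1.5 and 3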
- Meaning of the calls: active = hit: reporter lowered or raised; inactive = no hit

no.	gene	PubChem SID	firefly reporter light, replicate 1	firefly reporter light, replicate 2	Renilla control light, replicate 1	Renilla control light, replicate 2	activity call
1	Rab8 (GeneID 40168)	SID104191053	65457	63006	4.16e5	3.02e5	inactive
2	CG8326 (GeneID 32738)	SID104199895	96936	76446	6.44e5	6.31e5	inactive
3	CG8326 (GeneID 32738)	SID104206912	5.18e5	7.48e5	1.00e6	1.44e6	inactive
4	CG15599 (GeneID 32503)	SID104199460	1.88e5	1.84e5	2.91e6	3.10e6	inactive
5	cyc (GeneID 40162)	SID104191129	2.29e5	1.18e5	2.81e6	2.03e6	inactive
6	CG31436 (GeneID 318734)	SID104194453	1.59e5	1.95e5	2.11e6	2.41e6	inactive
7	CG31436 (GeneID 318734)	SID104203266	1.13e6	8.74e5	9.84e5	9.08e5	inactive
8	Theg (GeneID 42585)	SID104195815	36160	41929	4.87e5	4.96e5	inactive
9	nht (GeneID 34902)	SID104181768	2.65e5	3.61e5	2.71e6	2.47e6	inactive
10	CG18682 (retired record) (GeneID 50098)	SID104195165	2.20e5	1.86e5	2.25e6	2.71e6	inactive
11	CG18682 (retired record) (GeneID 50098)	SID104195166	1.54e5	1.31e5	2.19e6	2.07e6	inactive
12	lambdaTry (GeneID 36214)	SID104185929	2.98e5	1.80e5	1.85e6	1.34e6	inactive
13	Tb (GeneID 43212)	SID104195607	2.40e5	2.32e5	2.11e6	2.10e6	inactive
14	Tb (GeneID 43212)	SID104202790	1.11e6	8.74e5	1.05e6	1.15e6	inactive
15	Haspin (GeneID 3355064)	SID104215312	1.09e6	9.81e5	2.09e6	1.43e6	inactive
16	Obp47b + CG7741	SID104186122	1.07e5	86746	4.98e5	8.14e5	inactive
17	Obp47b + CG7741	SID104206118	3.47e5	3.42e5	7.97e5	8.37e5	inactive
18	Gpdh3 (GeneID 42624)	SID104195117	2.92e5	3.38e5	3.67e6	4.02e6	inactive
19	Adss (GeneID 42466)	SID104193954	76028	1.16e5	7.80e5	1.11e6	inactive
20	Adss (GeneID 42466)	SID104208623	8.79e5	8.90e5	1.11e6	1.26e6	inactive

The list goes on (4 carried over from the part before).
no.	gene	PubChem SID	firefly reporter light, replicate 1	firefly reporter light, replicate 2	Renilla control light, replicate 1	Renilla control light, replicate 2	activity call
17	Obp47b + CG7741	SID104206118	3.47e5	3.42e5	7.97e5	8.37e5	inactive
18	Gpdh3 (GeneID 42624)	SID104195117	2.92e5	3.38e5	3.67e6	4.02e6	inactive
19	Adss (GeneID 42466)	SID104193954	76028	1.16e5	7.80e5	1.11e6	inactive
20	Adss (GeneID 42466)	SID104208623	8.79e5	8.90e5	1.11e6	1.26e6	inactive
21	CG7366 (GeneID 38918)	SID104190617	6.19e5	6.05e5	3.34e6	3.83e6	inactive
22	CG7366 (GeneID 38918)	SID104208532	4.29e5	3.72e5	1.00e6	8.02e5	inactive
23	Dscam4 (GeneID 2769008)	SID104188705	2.97e5	3.77e5	1.77e5	1.58e5	inactive
24	Dscam4 (GeneID 2769008)	SID104189823	2.62e5	2.25e5	2.45e6	1.64e6	inactive
25	Dscam4 (GeneID 2769008)	SID104190121	1.96e5	1.63e5	1.52e6	1.24e6	inactive
26	Dscam4 (GeneID 2769008)	SID104190557	2.70e5	2.33e5	3.97e6	2.38e6	inactive
27	Dscam4 (GeneID 2769008)	SID104206004	2.54e5	2.19e5	6.75e5	8.16e5	inactive
28	CG10375 (GeneID 42812)	SID104207064	2.23e5	5.98e5	7.40e5	1.41e6	inactive
29	esg (GeneID 34903)	SID104183322	1.67e5	2.14e5	1.49e6	2.02e6	inactive
30	CG31693 (GeneID 318887)	SID104183466	3.60e5	5.88e5	3.61e5	4.98e5	inactive
31	MESR4 (GeneID 36986)	SID104186693	1.21e5	1.41e5	7.11e5	7.11e5	inactive
32	Cyp4g1 (GeneID 30986)	SID104198251	1.02e5	85229	4.84e5	5.23e5	inactive
33	Cyp4g1 (GeneID 30986)	SID104208443	3.17e5	2.95e5	8.28e5	5.36e5	inactive
34	Pi4KIIIalpha (GeneID 31247)	SID104198447	2.84e5	2.69e5	3.18e6	3.02e6	inactive
35	Pi4KIIIalpha (GeneID 31247)	SID104214545					inactive
36	Pi4KIIIalpha (GeneID 31247)	SID104214546					inactive
37	CG10588 (GeneID 40316)	SID104191420	2.63e5	2.74e5	1.76e6	2.44e6	inactive
38	CG6204 (GeneID 42877)	SID104195783	92616	76855	6.34e5	6.56e5	inactive
39	APC4 (GeneID 31835)	SID104198152	1.10e5	50954	6.10e5	4.47e5	inactive
40	APC4 (GeneID 31835)	SID104208538	3.85e5	4.54e5	1.01e6	1.17e6	inactive
